# Whole data set: some 33,000 sequences, median “E-score (-0.5 to 0.5)” near -8e-05, cut for the highest 2% near 0.23. The list shows a part of the results.
# Target: T1, Nrg2 (UniProt P38082)
# T1 sequence: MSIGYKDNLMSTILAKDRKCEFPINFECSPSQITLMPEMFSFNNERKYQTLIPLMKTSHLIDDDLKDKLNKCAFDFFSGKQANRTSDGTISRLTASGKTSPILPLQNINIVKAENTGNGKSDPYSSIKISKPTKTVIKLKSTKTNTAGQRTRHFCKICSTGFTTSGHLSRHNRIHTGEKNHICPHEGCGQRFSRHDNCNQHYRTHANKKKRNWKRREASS
# Experiment: PBM E-score (8-mer binding enrichment) (E-score (-0.5 to 0.5)); higher = stronger / more preferred TF binding
# Details: protein concentration: 100 nM; construct: GST-full length
# How it was run: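 Universal all-10-mer Agilent arrays, double-stranded by primer extension on fresh or once-stripped slides, were probed with about 100-200 nM GST-tagged yeast transcription factors made by PURExpress. Fluorescent anti-GST detected bound protein, and masliner normalised the scans. E-scores from the Universal PBM Analysis Suite were given to each ungapped eight-base word pooled with its reverse complement.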
row,Sequence,PBM E-score
1,ATGGCTAA,-0.0494
2,AAACGCGG,0.178
3,GTTCACGA,0.0077
4,GGATGTAC,-0.0199
5,AAGATTCT,-0.106
6,CAGTTCTA,-0.183
7,CTCTACAG,-0.101
8,CATCCTCA,-0.106
9,AATTCCAG,0.0701
10,AATTTAAG,-0.0478
11,CAGTGATA,0.0771
12,CAGTACAA,-0.0239
13,AAAAGCTT,-0.147
14,ACATGTCC,0.0495
15,AATCTCAC,-0.0783
16,GTACGGGA,-0.143
17,ATTTCAAG,-0.039
18,GGCAGTAC,-0.0158
19,CCATTGGG,-0.146
20,GCGCATCC,0.00271
21,GTATACAA,0.144
22,GCCGGTAC,-0.241
23,AAGAGAGA,-0.224
24,ATCTATGG,-0.0899
25,AATGGGTG,0.0747

# A second format for some results above.
row | Sequence | PBM E-score
2 | AAACGCGG | 0.178
12 | CAGTACAA | -0.0239

# Remaining list, next part.

row,Sequence,PBM E-score
1,GGGGAGTA,-0.0352
2,ATACTTGG,0.0452
3,ACGAGACA,-0.0105
4,AAAGGCCG,-0.174
5,GTGTCAAA,0.0139
6,ATTCACTC,-0.00107
7,AAAACCAA,-0.0245
8,CCTACGTC,-0.175
9,ATGAATTA,0.0776
10,CATTAACC,0.0762
11,ATCAGTCG,0.0523
12,ACTGTTCT,0.114
13,CATTCCCG,0.0875
14,GCGAAAGA,0.00991
15,AGCGAAAT,0.0986
16,GAATACAA,0.107
17,CGTTGCGC,-0.0131
18,GACAAAAA,0.0692
19,CGAAGGTC,-0.132
20,ATCGGGGG,-0.328
21,ATTGGCTC,-0.0548
22,ACGCCCTC,-0.0422
23,CTAGTTCC,0.0978
24,CTCCAAAC,0.00209
25,CTCACCTA,-0.114

row,Sequence,PBM E-score
1,CACGTTTA,-0.137
2,GTGAACCA,0.0356
3,TACTCCTA,-0.133
4,GGTGTGCA,-0.253
5,CCAGGTGC,0.0275
6,AGGTCCCA,-0.0402
7,AGTAGGTC,-0.219
8,AGTAGGAA,-0.0957
9,CGGGGGAA,-0.158
10,CAGGTCCG,-0.00878
11,ACCTAGAC,-0.127
12,CCGGTCCA,-0.254
13,AGCTTAGG,-0.0232
14,AGATCACG,-0.0131
15,GACAGTTA,0.035
16,AGAACTGC,-0.133
17,TCCGCGAA,0.0271
18,ATCACGAA,0.061
19,TCACTAAA,0.099
20,AGCACAGG,0.0239
21,CGACTAAA,-0.00871
22,AAATAAAG,0.0565
23,AAGACAGG,0.0155
24,ACCTCGAT,0.147
25,CTTTATGA,0.00015

row,Sequence,PBM E-score
1,GAGAGTCC,-0.152
2,AAAAGCGG,-0.12
3,CCGCGAAG,0.106
4,AATTGTAG,0.0513
5,CGACGCCA,-0.0323
6,AGTGTCCA,0.0617
7,GCACTTAA,-0.00289
8,GCCGAATA,-0.0388
9,AAACGGAT,0.205
10,ACCTGACT,0.148
11,CTTTCAAA,0.193
12,CCGTCTAC,-0.0453
13,ATTGCTCG,-0.0158
14,CCGAGGCA,-0.107
15,CACGCCTC,-0.127
16,AGGACCCA,-0.179
17,GGCTACGA,-0.0831
18,ACGCAGTC,-0.242
19,AATTGGAC,0.193
20,CCATGCGC,0.125
21,AATGTACA,0.105
22,CCTAGTAA,-0.0585
23,CATCATCC,0.0396
24,GGTGCACC,0.0727
25,CAGAATCA,0.209

row,Sequence,PBM E-score
1,AACTATAG,-0.00956
2,CTCGACCA,-0.16
3,CTTTCTGC,0.0856
4,GTTCTTAA,0.0272
5,CATCGGTA,-0.208
6,CTTAATCC,0.0573
7,GGGGTGAA,-0.123
8,GCAGTCCC,-0.111
9,ACGTACAT,0.0502
10,ATTGGTGG,0.0468
11,GTCATAGA,-0.0155
12,CCGTGAAG,-0.127
13,CCGATGGA,-0.145
14,GAAGACAC,0.0793
15,CGTTTAAA,-0.0119
16,AATGCACG,0.00138
17,AGTTTAGC,0.01
18,CAGTTTAC,-0.0401
19,GACCTCGC,-0.0199
20,ATAACCAA,0.168
21,CAAAATCC,0.1
22,AAGTCACG,-0.0613
23,ATAATCCC,0.24
24,AGCCACAA,-0.0358
25,GGATGTGA,0.0138

row,Sequence,PBM E-score
1,GCAACCGA,-0.0106
2,AAAAATCT,0.0638
3,TCTAAGCA,0.0127
4,AATAGTGG,-0.0486
5,GGAATTCC,-0.148
6,GAACCCGC,-0.0987
7,AACGAGGA,0.169
8,CGGTCGGC,-0.147
9,AGAGTTAA,-0.0711
10,AACCCGTG,-0.242
11,AACTTGCC,0.0117
12,CGAAGTTC,0.0952
13,GAACTCGA,0.0868
14,AGAAAAGA,-0.17
15,CACCAATG,0.0207
16,AGAGTCGG,-0.0437
17,TCTACGCA,0.0696
18,GGTCTTTA,0.0213
19,ATGCGAAC,-0.00758
20,ATCGTTAG,-0.069
21,AATCGAGA,0.114
22,CATTTACG,-0.131
23,CCGCGCTC,0.0292
24,AACCTGCT,-0.00382
25,AGAATTAG,0.00217

row,Sequence,PBM E-score
1,GTTTGTCA,0.0556
2,ATGCCTAC,-0.166
3,CCTGACTA,0.172
4,TGAAGCAA,-0.0714
5,ATAATCTC,0.212
6,ATTGGTAG,0.0439
7,ATCCCGAC,0.0589
8,AAAAGCAA,0.019
9,GGTAAGTA,-0.146
10,GCCGTAGA,0.083
11,ACCGATAC,-0.00076
12,ACAAGACA,0.146
13,AGGGGCAG,-0.00851
14,AATAGCAA,0.194
15,ATTTCGAG,0.14
16,ATACGGAG,-0.1
17,CGTAGTAG,-0.0402
18,GCTTCTTA,-0.0781
19,CGTAGCGC,-0.0705
20,GAATCGCA,0.0121
21,ATGCGTTA,-0.0667
22,GGCGTGTA,-0.0241
23,ATCGTAAA,-0.0607
24,GCAACGCA,-0.264
25,CTGGGTGA,-0.0666

row,Sequence,PBM E-score
1,CGGTGTCC,-0.0812
2,AAGATAAC,0.0597
3,TGCCCTAA,-0.156
4,ACTTTTTA,0.0398
5,GCAGCGCC,-0.0682
6,ACGTAGCT,-0.0827
7,GCATAAAC,-0.0002
8,AACATAGT,0.065
9,ATAGCTCA,0.00447
10,ATCCTGTC,0.0194
11,CGGGCCAA,-0.263
12,CACTAAGA,0.127
13,TCAGACGA,0.119
14,AAAAAGAC,0.129
15,AGCTGATA,0.00949
16,AAGAGGAC,-0.0921
17,CACATCAC,0.00889
18,CTAAGTAC,-0.0485
19,AGAGCAAT,-0.0853
20,AAGAGCGG,-0.0332
21,TCACCCGA,0.0644
22,CACCTTTC,0.0109
23,ATATTTAA,0.14
24,GACATTGC,-0.0455
25,CGGTACTC,-0.185

row,Sequence,PBM E-score
1,ATGGTCCC,0.0828
2,TACCATCA,-0.169
3,ATAATAAA,0.224
4,CGCTTTGA,0.0191
5,AGGGGACC,0.225
6,ACTAGTCC,0.1
7,GCCTACTA,0.15
8,ATTAGTTG,0.256
9,CTAATACC,-0.047
10,AACTCGCG,0.107
11,GGGTAAGA,-0.276
12,GCGCAAGC,-0.0668
13,ACACCAGC,-0.121
14,ACGCTTAA,-0.0464
15,TAGACTCA,-0.169
16,ACTCGGTC,0.0193
17,CACAGCAA,0.162
18,ACTGCTAT,0.0878
19,GTCCCCGA,0.104

# Copied from the list:
# PBM E-score, ATGGTCCC reads 0.0828
# PBM E-score, AGGGGACC reads 0.225
# PBM E-score, GGGTAAGA reads -0.276
# PBM E-score, AACTCGCG reads 0.107
# PBM E-score, ACGCTTAA reads -0.0464
# PBM E-score, ACTCGGTC reads 0.0193
